# Test results: patent US8445291B2 (National University Corporation Tokyo Medical and Dental …, priority 2007, dated 2013)
# Experiments:
# [1] = system: probe peptide; test: Fluorescence titration of probe peptide with tag peptide (HEPES buffer), incl. Job's plot; type: binding; conditions: 0.5 μM probe peptide, no tag peptide
# Procedure: Fluorescence titration was performed for the tag polypeptides and the probe polypeptides of Examples 1 to 3.
# In the fluorescence titration, the rate of change of the fluorescence intensity at 505 nm was plotted against the concentration of the tag peptide and the dissociation constant was calculated from a theoretical formula assuming 1 to 1 binding of the tag peptide to the probe peptide.
# In Example 1, the fluorescence intensity at 505 nm in the presence of 1 equivalent of tag peptide was 18 times as high as that measured in the absence of the tag peptide.
# Also in the fluorescence titration, with the total concentration of the tag peptide and the probe peptide being fixed at 1.0 μM, the ratio of the respective concentrations of the tag peptide and the probe peptide was varied and the fluorescence intensity at 505 nm was measured. The measured fluorescence intensity was plotted against the ratio of the tag peptide concentration to the total concentration of the tag peptide and the probe peptide and was analyzed by the theoretical formula assuming 1 to 1 binding of the tag peptide to the probe peptide.
# [2] = general procedure: Fmoc solid-phase peptide synthesis; Rink Amide resin (0.55 mmol/g); 2-chlorotrityl chloride resin for Chain B; diisopropylcarbodiimide / N-hydroxybenzotriazole monohydrate; conditions: whole synthesis, scale 0.05 mmol
Substance,fluorescence wavelength detected for the probe peptide alone [1] [nm],isolated mass [2] [mg],isolated yield [2] [%]
ALKKELEALKKELEALKKELAGGCGGALEKELEALEKELEALEKELA [Example 2],~540,–,–
ALKKELEAAKKELEALKKELAGGCGGALEKELEALEKEAEALEKELA [Example 1],~540,–,–
ClAc-{Gly}{Ala-Leu-Lys-Lys-Lys-Leu-Glu}{Ala-Leu-Lys-Lys-Lys-Dap(NBD)-Glu}{Ala-Leu-Lys-Lys-Lys-Leu-Ala},–,12.8,27.8
ALKKELEAGKKELEALKKELAGGCGGALEKELEALEKEGEALEKELA [Example 3],~540,–,–
